B1: anti-TNP CAR with a CD28 co-stimulatory domain (other)
chain: DIVMTQSQKFMSTSVGDRVSITCKASQNVGTAVAWYQQKPGQSPKLLIYSASNRYTGVPDRFTGSGSGTDFTLTISNMQSEDLADYFCQQYSSYPLTFGAGTKLELKGSTSGSGKPGSGEGSTKGQVQLQQSGPELVKPGASVRISCKASGYTFTSYYIHWVKQRPGQGLEWIGWIYPGNVNTKYNEKFKGKATLTADKSSSTAYMQLSSLTSEDSAVYFCARNYGSSYGLAYWGQGTLVTVSAFVPVFLPAKPTTTPAPRPPTPAPTIASQPLSLRPEACRPAAGGAVHTRGLDFACDIYIWAPLAGTCGVLLLSLVITLYCNHRNRSKRSRLLHSDYMNMTPRRPGPTRKHYQPYAPPRDFAAYRSRVKFSRSADAPAYQQGQNQLYNELNLGRREEYDVLDKRRGRDPEMGGKPRRKNPQEGLYNELQKDKMAEAYSEIGMKGERRRGKGHDGLYQGLSTATKDTYDALHMQALPPR
notes: Control CAR on edited T cells; also called α-TNP/CD28/CD3ζ CAR; α-TNP/CD28/CD3ζ CAR TRAC 1
B2: anti-TNP CAR with a 4-1BB co-stimulatory domain (other)
chain: DIVMTQSQKFMSTSVGDRVSITCKASQNVGTAVAWYQQKPGQSPKLLIYSASNRYTGVPDRFTGSGSGTDFTLTISNMQSEDLADYFCQQYSSYPLTFGAGTKLELKGSTSGSGKPGSGEGSTKGQVQLQQSGPELVKPGASVRISCKASGYTFTSYYIHWVKQRPGQGLEWIGWIYPGNVNTKYNEKFKGKATLTADKSSSTAYMQLSSLTSEDSAVYFCARNYGSSYGLAYWGQGTLVTVSAAAAFVPVFLPAKPTTTPAPRPPTPAPTIASQPLSLRPEACRPAAGGAVHTRGLDFACDIYIWAPLAGTCGVLLLSLVITLYCNHRNRFSVVKRGRKKLLYIFKQPFMRPVQTTQEEDGCSCRFPEEEEGGCELRVKFSRSADAPAYQQGQNQLYNELNLGRREEYDVLDKRRGRDPEMGGKPRRKNPQEGLYNELQKDKMAEAYSEIGMKGERRRGKGHDGLYQGLSTATKDTYDALHMQALPPR
notes: Control CAR on edited T cells; also called α-TNP/41BB/CD3ζ CAR; α-TNP/41BB/CD3ζ CAR TRAC 1

Molecular target: T1, biotinylated-BCMA (Acro Biosystems BC7-H82F0) (UniProt Q02223 1-54, biotinylated)
T1 construct: Soluble staining reagent, detected with PE-conjugated streptavidin
T1 sequence (looked up): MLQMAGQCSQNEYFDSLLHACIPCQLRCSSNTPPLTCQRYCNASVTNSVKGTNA
Assay: flow cytometry of edited T cells stained with biotinylated BCMA/streptavidin-PE, day 5

Binder | binding result
B1 | no binding
B2 | no binding
